Patent publication US5801178A, “Aniline derivative having polyunsaturated fatty acid residue and use thereof” (Nippon Shoji Kaish Ltd., priority 1995, dated 1998)
Some entries share one result that the patent states for a list of compounds.

Test: Acute toxicity, oral, mice
Assay type: in vivo, Male slc:ICR mice
Conditions: single oral administration in corn oil, 14 days observation
Protocol: Male slc:ICR mice (4 weeks of age, Japan SLC Inc.) were bred for 7 days on a normal diet (solid diet for test animals, Labo MR stock-SLC, manufactured by Japan SLC Inc.). Then, the mice were fasted for 16 hours and divided into 5 per group. The mice were forcibly administered orally with the test compound (Compounds 4, 5 and 9-12) dissolved in corn oil. The mice were further bred on a normal diet for 14 days to observe acute toxicity.

Q: With `CCC=CCC=CCC=CCC=CCC=CCCCC(=O)Nc1c(C(C)C)cccc1C(C)C` [Compound 11, N-(2,6-diisopropylphenyl)-5,8,11,14,17-eicosapentaenamide] as the molecule, how does the minimum lethal dose read?
A: Its minimum lethal dose is ≥ 2,000 mg/kg.

Q: Which minimum lethal dose does the source give for `CCC=CCC=CCC=CCC=CCC=CCCCC(=O)Nc1c(CC)cccc1CC` [Compound 9, N-(2,6-diethylphenyl)-5,8,11,14,17-eicosapentaenamide] here?
A: The minimum lethal dose was ≥ 2,000 mg/kg.
